Assay results as given in paper PMC10598267.
Results are given in words; binding and its absence hold for the method and conditions named. Binding seen in cells or lysates may run through a third protein. Some binding calls cover weakened binding; strength is not graded here.

Chains of the proteins cited; added tags and fusions are not shown.
UniProt Q8WW22: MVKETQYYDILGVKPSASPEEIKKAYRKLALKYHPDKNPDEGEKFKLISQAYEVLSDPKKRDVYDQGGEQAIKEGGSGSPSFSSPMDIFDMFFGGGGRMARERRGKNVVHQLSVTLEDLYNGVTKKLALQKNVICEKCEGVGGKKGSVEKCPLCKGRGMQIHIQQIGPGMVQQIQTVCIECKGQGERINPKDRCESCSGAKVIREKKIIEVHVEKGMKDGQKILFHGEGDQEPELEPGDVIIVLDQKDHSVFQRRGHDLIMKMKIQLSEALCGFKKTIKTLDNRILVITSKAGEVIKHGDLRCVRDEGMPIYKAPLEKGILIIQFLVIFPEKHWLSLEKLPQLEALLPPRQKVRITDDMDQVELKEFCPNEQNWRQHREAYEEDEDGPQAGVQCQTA
UniProt P35579: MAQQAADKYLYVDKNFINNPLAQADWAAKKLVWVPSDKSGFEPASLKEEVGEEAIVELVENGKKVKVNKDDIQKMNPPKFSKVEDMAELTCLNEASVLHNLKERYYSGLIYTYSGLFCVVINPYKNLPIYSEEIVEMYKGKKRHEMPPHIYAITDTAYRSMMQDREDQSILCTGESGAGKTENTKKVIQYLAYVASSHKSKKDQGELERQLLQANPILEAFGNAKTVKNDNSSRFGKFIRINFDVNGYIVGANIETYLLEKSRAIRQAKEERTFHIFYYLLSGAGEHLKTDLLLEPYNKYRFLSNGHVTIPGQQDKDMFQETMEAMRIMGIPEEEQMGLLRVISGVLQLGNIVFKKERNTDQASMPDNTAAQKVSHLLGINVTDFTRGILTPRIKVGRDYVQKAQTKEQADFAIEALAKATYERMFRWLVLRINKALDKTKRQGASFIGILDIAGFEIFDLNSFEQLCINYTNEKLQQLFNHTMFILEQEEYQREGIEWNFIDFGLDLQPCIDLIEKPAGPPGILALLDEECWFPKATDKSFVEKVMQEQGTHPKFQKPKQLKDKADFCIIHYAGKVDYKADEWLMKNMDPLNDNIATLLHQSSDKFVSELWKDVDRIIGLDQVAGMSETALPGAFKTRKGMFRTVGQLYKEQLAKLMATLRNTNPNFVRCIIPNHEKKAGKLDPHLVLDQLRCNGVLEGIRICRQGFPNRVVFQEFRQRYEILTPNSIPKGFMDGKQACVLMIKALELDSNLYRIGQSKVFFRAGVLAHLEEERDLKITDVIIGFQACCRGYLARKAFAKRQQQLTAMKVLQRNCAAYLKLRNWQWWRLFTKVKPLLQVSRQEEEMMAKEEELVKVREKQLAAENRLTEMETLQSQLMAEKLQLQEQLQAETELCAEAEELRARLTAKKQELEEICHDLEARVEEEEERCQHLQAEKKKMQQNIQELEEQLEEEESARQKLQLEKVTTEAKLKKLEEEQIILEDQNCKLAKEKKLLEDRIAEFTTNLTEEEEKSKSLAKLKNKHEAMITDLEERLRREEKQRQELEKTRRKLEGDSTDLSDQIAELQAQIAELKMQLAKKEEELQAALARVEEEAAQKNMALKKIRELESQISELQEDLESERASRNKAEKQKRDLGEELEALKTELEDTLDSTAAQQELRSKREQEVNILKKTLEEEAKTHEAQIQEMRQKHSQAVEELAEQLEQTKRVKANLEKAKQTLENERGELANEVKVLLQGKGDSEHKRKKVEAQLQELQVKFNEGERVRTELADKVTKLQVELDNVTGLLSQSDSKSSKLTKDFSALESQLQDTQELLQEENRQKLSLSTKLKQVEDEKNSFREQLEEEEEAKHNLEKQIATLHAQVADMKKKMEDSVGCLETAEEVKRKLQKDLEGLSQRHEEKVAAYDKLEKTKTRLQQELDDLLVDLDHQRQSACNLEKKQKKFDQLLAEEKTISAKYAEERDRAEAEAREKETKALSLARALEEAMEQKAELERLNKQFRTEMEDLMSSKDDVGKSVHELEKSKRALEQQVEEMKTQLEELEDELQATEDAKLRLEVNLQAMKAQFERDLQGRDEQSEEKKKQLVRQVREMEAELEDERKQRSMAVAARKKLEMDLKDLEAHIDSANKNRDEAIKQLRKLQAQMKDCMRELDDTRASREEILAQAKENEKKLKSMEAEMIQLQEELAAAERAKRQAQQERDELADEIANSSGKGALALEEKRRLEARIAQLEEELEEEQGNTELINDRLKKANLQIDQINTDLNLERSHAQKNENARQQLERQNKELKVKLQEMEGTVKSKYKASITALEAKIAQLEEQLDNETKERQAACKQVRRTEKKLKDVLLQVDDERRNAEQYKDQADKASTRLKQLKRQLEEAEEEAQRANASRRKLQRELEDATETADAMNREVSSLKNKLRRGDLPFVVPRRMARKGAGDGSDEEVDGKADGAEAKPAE
UniProt Q13200: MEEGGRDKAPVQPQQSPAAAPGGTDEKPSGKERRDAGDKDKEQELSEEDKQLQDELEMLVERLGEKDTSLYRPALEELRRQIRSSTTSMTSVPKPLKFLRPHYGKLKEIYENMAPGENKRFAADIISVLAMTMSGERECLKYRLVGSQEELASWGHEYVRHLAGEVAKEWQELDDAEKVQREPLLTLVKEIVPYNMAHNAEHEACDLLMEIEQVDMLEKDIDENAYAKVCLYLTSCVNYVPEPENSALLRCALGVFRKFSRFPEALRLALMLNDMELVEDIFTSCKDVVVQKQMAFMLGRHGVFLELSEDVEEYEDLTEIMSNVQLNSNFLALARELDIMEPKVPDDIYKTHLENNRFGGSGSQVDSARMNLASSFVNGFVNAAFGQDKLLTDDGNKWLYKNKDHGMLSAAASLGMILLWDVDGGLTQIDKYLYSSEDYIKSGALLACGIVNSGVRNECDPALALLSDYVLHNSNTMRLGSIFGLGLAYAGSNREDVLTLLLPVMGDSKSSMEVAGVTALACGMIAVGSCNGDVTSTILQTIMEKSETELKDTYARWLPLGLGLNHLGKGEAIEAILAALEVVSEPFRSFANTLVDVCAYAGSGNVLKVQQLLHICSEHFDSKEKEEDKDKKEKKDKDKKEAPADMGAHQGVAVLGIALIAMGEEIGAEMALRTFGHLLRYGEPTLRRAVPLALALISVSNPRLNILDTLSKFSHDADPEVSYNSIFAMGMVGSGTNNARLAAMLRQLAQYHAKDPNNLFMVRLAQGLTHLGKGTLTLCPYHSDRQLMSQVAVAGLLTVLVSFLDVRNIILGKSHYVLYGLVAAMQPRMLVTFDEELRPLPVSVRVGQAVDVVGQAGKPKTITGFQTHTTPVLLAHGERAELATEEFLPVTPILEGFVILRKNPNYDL

Legend:
[1] = target: HA-tagged DNAJA4 (DNAJ Heat Shock Protein Family (HSP40) Member A4) (UniProt Q8WW22); test: co-IP; domain deletion mutants of DNAJA4 and PSMD2 (Supplementary Fig. S4, not shown); the text does not name the method, co-IP is the paper's only binding method
[2] = target: DNAJA4 (endogenous) (human (endogenous in HONE1 and SUNE1)) (UniProt Q8WW22); test: co-IP; endogenous proteins in HONE1 and SUNE1 cells; IP with anti-DNAJA4 or anti-MYH9 antibodies, western blot for PSMD2
[3] = target: MYH9 (endogenous) (human (endogenous in HONE1 and SUNE1)) (UniProt P35579); test: as above
[4] = target: HA-tagged DNAJA4 (DNAJ Heat Shock Protein Family (HSP40) Member A4) (UniProt Q8WW22); test: co-IP; exogenous DNAJA4-HA and MYH9-FLAG in HONE1 and SUNE1 cells; IP with anti-HA or anti-Flag antibodies, western blot

With “PSMD2, tagged overexpression construct (from UniProt Q13200 1-908)” the binding [1] was “binds”.
With “PSMD2 (endogenous) (from UniProt Q13200 1-908)” the binding [2] was “binds” and the binding [3] was “binds”.
With “FLAG-tagged MYH9 (from UniProt P35579 1-1960)” the binding [4] was “binds”.
